Tests used:
[1] = Neurotoxicity screening (rotarod test); conditions: male, Kunming, mouse, in vivo, ip, mice, 95% confidence interval in brackets
Protocol: (§1) Male Kunming mice with weights from 18 to 22 g were used in all the pharmacological experiments. The mice were housed in the standard cages with 10 each, where a controlled temperature (25°C ± 2°C) with a 12 h light/dark cycle was maintained. All animals had free access to food and water. All experiments and procedures involving animals were carried out according to the Guide for the Care and Use of Laboratory Animals (National Academies Press, Washington, D.C., United States). Approval from the local medical ethical committee was obtained before the experiment.
The rotarod test was used to evaluate the neurotoxicity of the synthesized compounds. Before the formal experiments, mice were trained to climb on a rotating rod of diameter 3.2 cm with the rotation speed of 10 rpm. Test compounds in the three doses were intraperitoneally injected into the trained mice. […] The rough neurotoxic dose was obtained in which mice cannot maintain equilibrium on the rod for at least 1 min. The quantitative neurotoxic dose (TD50) of the test compounds was measured and calculated with the same method described in the MES test.

[2] = test system: MES-induced seizures; assay: Maximal electroshock seizure (MES) test; type: in vivo; conditions: TD50 rotarod / ED50 MES, mice i.p.
Protocol: as §1
In the MES test, mice were subjected to ear stimulation using a 0.2 s 60-Hz 50-mA alternating current to elicit seizures. Tonic hind limb extension was considered as the seizure occurring, and the vanishing of tonic hind limb extension indicates the protection against the MES-induced seizures. Mice were injected intraperitoneally with test compounds at doses of 300, 100, and 30 mg/kg to evaluate their general anticonvulsant activity. Half and 4 h intervals were chosen to test the anti-MES activity. Based on the rough effective dose obtained in the aforementioned assay, compounds effective at the dose of 30 mg/kg were subjected to the quantitative assay to determine their median effective dose (ED50). A series of doses of the tested compounds were injected into the mice with 10 in one group.

[3] = test system: PTZ-induced seizures; assay: Subcutaneous pentylenetetrazole (PTZ) test; type: in vivo; conditions: TD50 rotarod / ED50 scPTZ, mice i.p.
Protocol: as §1
In the PTZ test, mice were subcutaneously administered with PTZ at the dose of 85 mg/kg. At this dose, mice can be elicited a threshold seizure characterized by an episode of clonic spasms and tonic spasms. After being treated with test compounds at doses of 300, 100, and 30 mg/kg, the mice were considered protected if a single episode of clonic spasms of more than 5 s duration was not obtained. The quantitative anticonvulsant activity (ED50) in the PTZ model was determined and calculated with the same method described in the MES test.

For `CN1C(=O)CN=C(c2ccccc2)c2cc(Cl)ccc21` [Diazepam, reference compound], the TD50 at 30 min [1] was 3.3 mg/kg, the “PI MES, protective index (TD50/ED50)” value [2] was 0.33 and the “PI scPTZ, protective index (TD50/ED50)” value [3] was 6.6.

Reference: PMC9260081, “Design, Synthesis, and Evaluation of Anticonvulsant Activities of New Triazolopyrimidine Derivatives” (Frontiers in Chemistry, 2022)
